Source: publication PMC4978403

What was measured:
[1] = target: T1, GST-SAV1 fusion protein (chicken SAV1) (chicken) (UniProt E1C3T7); assay: pull-down; CHO cells co-transfected with pSF-GST-SAV1 (or empty pSF-GST) and one of pcDNA3.0-STK4, STK3, LATS1, MOB2 for 24 h; lysates incubated with Glutathione Sepharose 4B beads overnight, washed three times with lysis buffer; western blot
T1 sequence: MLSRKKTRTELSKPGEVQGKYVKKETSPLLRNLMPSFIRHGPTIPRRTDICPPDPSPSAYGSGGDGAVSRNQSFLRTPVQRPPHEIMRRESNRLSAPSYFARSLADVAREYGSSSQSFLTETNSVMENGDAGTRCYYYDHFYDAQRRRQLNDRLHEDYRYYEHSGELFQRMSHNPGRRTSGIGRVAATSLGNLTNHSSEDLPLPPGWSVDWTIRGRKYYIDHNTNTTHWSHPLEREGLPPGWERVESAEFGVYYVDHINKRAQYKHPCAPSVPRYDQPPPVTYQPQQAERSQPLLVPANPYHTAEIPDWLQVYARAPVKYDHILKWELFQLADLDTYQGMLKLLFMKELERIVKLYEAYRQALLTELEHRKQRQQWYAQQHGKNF

[2] = target: T2, FLAG-SAV1 (chicken Salvador homolog 1, FLAG-tagged) (chicken) (UniProt E1C3T7); assay: co-IP; chicken granulosa cells transfected with pFLAG-SAV1 for 24 h; lysates immunoprecipitated with an antibody to FLAG (control: chicken IgG); 50 mM Tris-HCl pH 7.4, 150 mM NaCl, 0.2 mM PMSF, 1% Triton X-100, 1 mM EDTA; immunoblot for the endogenous partners
T2 sequence: T1 sequence

Row | Substance | binding [1] | binding [2]
1 | MOB2 (chicken), expressed from pcDNA3.0-MOB2 | binds | –
2 | MOB2 (chicken), endogenous | – | binds
3 | LATS1 (chicken large tumor suppressor homolog 1), endogenous | – | binds
4 | LATS1 (chicken), expressed from pcDNA3.0-LATS1 | binds | –

No constants are given. Whether binding was seen depends on the method and setting. In cells and extracts the contact can be indirect. Binding calls can cover weak binding; strength is not graded here. Where a sequence is shown, tags or fusion partners need not be part of it.
